At least one structure is not confirmed: it was looked up by name or label, or the drawing left a doubt.
Tested on: colitis in IL10−/− mice
Assay: Mouse colitis model (IL10 knock-out)
Type: in vivo
Details: colitic IL10−/− mice, 3 weeks treatment
Method: Mouse Colitis Model. Colitis was induced in 6-8 week old BALB/cIL10−/−mice by administering the colonic contents of conventional C57BL/6 mice diluted 1:10 in PBS by oral gavage. Mouse weights and fecal consistencies were monitored and colitis allowed to develop for 6 weeks. Ethanol (Vehicle) and compound I-1 (3 mg/kg) was diluted in cage drinking water and dexamethasone (0.4 mg/kg) was administered every 2 days by oral gavage for 3 weeks. At the end of the dosing period, proximal, medial and distal colon sections were collected for paraffin embedding or stored in RNALater (Invitrogen, Mississauga, ON) for RNA extraction. Slides were prepared, stained with hematoxylin and eosin, and mounted by the UBC Department of Pathology and Laboratory Medicine Histochemistry Facility. Specimens were assigned pathological scores by two, independent, blinded investigators according to a method described by Madsen et al (Madsen et al., 2001). In brief, colonic inflammation was graded using a 4-point scale, scoring 0-3 for each of submucosal edema, immune cell infiltration, goblet cell ablation, and integrity of the epithelial layer. For analysis of mRNA expression, colon sections were homogenized and total RNA extracted as described above and analyzed by real time PCR using gene specific primers for IL17, CCL2, and GAPDH (normalization control).
To show in vivo anti-inflammatory effect of the compounds of the present disclosure, exemplary compound I-1 was administered to IL-10 knock-out mouse model of colitis (Keubler 2015). IL10 knock-out mice develop colitis when colonized with normal gut flora because IL10 is needed to temper the host immune response to intestinal commensal bacteria (Keubler 2015, Kuhn 1993). Colitis was initiated in IL10−/−mice by inoculating them with the freshly isolated colon contents of normal, specific pathogen free mice and allowed inflammation to develop for 6 weeks (Sydora 2003). […]

Compound: C[C@@H]1C[C@H]2[C@@H]3CCC4=CC(=O)C=C[C@]4(C)[C@@]3(F)[C@@H](O)C[C@]2(C)[C@@]1(O)C(=O)CO [dexamethasone, reference compound]
- pathology scores of colon sections (2 mg/kg compound I-1 or 0.4 mg/kg dexamethasone, vs vehicle): significantly lower pathology scores
- CCL2 mRNA in colon (RT-qPCR relative to GAPDH): significantly reduced
- IL17 mRNA in colon (RT-qPCR relative to GAPDH): significantly reduced

Source: patent US20230174571A1, “METHOD OF TREATING SHIP1-MEDIATED DISEASES USING PELOROL DERIVATIVES” (Zebrapeutics Inc., priority 2020, published 2023)
